The supplement of paper PMC12823440, “Inhibitors supercharge kinase turnover through native proteolytic circuits” (Nature, 2025)
Where a name gives a salt, the structure may show the parent alone. Some of the results follow. Hit calls seldom repeat between salt and free forms of one compound.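 Kinases, fused to nanoluciferase, were expressed in K562 cells; luminescence was measured every 4 h from 2 to 18 h as percent of control (DMSO = 100%, positive control = 0%). A time point is decreased if signal falls significantly (2 sigma). Hits were called by the authors by a rule that is not shown; the count of time points alone does not decide it.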

Protein sequences, listed by entry. Tags and fused reporters are not part of them. Lines headed by an entry give the natural chain unless they say otherwise; changes in a name come on top.
UniProt Q06187: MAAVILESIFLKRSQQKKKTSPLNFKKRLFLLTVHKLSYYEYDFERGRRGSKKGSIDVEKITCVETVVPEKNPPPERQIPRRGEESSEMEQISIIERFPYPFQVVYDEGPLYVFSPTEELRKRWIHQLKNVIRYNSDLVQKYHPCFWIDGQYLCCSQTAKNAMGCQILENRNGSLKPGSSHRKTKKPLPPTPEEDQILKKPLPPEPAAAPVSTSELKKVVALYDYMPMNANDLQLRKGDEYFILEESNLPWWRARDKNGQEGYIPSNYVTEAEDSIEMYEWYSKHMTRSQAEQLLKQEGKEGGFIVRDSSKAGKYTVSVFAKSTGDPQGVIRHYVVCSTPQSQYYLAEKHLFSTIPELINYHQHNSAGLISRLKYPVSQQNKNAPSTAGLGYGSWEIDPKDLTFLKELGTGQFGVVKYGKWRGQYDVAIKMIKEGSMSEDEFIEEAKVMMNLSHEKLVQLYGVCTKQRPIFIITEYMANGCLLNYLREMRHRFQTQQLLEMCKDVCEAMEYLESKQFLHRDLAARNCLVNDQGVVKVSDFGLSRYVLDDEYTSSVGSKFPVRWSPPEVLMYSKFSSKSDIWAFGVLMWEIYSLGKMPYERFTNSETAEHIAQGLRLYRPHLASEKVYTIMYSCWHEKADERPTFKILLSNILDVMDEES
UniProt Q9UQM7, whole entry: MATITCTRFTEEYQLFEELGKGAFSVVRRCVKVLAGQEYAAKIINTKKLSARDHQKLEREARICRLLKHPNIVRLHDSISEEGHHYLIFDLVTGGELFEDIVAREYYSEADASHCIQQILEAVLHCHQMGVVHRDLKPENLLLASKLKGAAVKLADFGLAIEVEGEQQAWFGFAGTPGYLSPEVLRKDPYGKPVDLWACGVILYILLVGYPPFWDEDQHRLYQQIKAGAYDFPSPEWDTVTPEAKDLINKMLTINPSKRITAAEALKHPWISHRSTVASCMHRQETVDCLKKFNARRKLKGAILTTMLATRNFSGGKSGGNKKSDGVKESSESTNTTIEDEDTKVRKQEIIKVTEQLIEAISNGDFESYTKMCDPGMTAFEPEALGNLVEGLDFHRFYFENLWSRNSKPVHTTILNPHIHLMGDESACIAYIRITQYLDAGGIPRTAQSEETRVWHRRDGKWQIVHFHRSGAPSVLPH
UniProt Q13555: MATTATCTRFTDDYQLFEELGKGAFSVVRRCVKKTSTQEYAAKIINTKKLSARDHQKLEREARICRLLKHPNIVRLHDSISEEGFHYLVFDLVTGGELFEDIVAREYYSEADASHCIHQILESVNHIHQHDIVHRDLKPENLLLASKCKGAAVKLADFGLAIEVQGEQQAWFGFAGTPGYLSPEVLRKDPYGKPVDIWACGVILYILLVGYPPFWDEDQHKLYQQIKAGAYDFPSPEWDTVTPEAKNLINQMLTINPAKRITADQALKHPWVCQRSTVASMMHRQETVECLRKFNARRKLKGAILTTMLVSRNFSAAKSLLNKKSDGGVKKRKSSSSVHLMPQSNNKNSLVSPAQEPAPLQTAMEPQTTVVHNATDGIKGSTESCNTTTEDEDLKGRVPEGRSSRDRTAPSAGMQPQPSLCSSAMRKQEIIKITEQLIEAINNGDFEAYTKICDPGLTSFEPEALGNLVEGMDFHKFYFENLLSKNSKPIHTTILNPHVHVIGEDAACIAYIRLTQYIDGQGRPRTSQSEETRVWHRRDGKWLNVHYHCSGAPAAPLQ
UniProt Q15131: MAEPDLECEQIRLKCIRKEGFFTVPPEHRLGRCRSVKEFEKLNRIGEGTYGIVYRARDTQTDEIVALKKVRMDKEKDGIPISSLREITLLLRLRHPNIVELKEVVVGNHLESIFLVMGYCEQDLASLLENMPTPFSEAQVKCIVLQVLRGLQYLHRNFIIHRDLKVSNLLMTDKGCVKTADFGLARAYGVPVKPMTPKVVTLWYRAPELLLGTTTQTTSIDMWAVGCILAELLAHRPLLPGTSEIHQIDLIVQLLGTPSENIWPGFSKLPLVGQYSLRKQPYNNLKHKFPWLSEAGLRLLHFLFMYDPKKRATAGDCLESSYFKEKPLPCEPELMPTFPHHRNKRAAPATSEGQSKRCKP
UniProt Q00526: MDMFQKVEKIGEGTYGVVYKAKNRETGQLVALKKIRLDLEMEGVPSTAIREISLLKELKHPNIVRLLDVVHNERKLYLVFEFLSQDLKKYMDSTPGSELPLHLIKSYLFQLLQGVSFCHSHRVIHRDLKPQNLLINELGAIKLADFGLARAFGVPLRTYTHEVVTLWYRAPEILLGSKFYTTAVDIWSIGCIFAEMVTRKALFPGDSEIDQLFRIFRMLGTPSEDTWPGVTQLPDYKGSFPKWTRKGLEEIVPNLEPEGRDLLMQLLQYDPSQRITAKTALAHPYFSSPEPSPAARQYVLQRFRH
UniProt P11802: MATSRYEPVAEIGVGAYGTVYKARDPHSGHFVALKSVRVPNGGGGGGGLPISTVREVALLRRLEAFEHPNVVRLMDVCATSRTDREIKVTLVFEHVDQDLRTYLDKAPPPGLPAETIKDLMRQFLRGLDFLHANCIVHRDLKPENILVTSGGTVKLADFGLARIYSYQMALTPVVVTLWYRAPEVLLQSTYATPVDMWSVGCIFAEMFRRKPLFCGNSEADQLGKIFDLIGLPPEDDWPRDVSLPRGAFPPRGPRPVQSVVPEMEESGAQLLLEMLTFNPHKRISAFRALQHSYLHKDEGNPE
UniProt Q00535, whole entry, looked up: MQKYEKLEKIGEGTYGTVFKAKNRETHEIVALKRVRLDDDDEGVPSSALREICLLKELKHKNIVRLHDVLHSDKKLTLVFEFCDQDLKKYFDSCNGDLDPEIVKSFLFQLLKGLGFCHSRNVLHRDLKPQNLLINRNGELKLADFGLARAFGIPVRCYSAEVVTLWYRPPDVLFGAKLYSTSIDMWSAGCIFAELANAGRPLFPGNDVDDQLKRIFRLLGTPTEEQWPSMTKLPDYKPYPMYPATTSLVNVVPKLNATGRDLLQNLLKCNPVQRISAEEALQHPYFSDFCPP
UniProt P50613: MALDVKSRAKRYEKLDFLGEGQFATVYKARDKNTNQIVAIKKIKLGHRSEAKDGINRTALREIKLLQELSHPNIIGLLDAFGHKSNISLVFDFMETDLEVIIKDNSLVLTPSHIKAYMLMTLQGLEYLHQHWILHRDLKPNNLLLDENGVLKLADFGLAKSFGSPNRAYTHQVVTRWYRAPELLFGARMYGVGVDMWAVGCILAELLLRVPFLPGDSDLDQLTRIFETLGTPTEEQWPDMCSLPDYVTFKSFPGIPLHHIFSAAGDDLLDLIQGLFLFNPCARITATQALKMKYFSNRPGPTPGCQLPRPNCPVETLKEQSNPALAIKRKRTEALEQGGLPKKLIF
UniProt P50750, whole entry: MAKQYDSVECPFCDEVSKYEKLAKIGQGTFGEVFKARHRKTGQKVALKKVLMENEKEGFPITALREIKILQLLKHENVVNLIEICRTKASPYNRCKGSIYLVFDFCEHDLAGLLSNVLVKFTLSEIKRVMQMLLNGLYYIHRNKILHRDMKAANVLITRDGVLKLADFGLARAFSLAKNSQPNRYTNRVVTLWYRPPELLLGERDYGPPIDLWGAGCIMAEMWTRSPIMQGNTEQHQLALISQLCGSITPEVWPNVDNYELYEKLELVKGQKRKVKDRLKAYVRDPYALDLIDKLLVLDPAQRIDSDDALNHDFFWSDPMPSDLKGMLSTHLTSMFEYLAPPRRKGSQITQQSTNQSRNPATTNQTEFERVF
UniProt O96017, whole entry: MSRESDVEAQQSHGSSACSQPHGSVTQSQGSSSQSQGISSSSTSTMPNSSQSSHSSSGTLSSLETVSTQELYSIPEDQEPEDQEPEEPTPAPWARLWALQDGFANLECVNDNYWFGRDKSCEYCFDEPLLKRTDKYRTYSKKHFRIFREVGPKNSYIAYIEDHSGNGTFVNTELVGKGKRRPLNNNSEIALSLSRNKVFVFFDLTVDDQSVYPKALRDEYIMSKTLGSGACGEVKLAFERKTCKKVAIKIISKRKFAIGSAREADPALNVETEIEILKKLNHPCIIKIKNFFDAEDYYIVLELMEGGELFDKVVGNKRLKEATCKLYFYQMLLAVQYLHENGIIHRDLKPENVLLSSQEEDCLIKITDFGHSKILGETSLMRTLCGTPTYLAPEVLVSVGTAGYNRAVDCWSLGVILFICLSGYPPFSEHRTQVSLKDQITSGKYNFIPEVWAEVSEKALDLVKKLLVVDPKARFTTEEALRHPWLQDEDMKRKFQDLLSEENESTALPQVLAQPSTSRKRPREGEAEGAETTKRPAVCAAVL
UniProt P07333, whole entry: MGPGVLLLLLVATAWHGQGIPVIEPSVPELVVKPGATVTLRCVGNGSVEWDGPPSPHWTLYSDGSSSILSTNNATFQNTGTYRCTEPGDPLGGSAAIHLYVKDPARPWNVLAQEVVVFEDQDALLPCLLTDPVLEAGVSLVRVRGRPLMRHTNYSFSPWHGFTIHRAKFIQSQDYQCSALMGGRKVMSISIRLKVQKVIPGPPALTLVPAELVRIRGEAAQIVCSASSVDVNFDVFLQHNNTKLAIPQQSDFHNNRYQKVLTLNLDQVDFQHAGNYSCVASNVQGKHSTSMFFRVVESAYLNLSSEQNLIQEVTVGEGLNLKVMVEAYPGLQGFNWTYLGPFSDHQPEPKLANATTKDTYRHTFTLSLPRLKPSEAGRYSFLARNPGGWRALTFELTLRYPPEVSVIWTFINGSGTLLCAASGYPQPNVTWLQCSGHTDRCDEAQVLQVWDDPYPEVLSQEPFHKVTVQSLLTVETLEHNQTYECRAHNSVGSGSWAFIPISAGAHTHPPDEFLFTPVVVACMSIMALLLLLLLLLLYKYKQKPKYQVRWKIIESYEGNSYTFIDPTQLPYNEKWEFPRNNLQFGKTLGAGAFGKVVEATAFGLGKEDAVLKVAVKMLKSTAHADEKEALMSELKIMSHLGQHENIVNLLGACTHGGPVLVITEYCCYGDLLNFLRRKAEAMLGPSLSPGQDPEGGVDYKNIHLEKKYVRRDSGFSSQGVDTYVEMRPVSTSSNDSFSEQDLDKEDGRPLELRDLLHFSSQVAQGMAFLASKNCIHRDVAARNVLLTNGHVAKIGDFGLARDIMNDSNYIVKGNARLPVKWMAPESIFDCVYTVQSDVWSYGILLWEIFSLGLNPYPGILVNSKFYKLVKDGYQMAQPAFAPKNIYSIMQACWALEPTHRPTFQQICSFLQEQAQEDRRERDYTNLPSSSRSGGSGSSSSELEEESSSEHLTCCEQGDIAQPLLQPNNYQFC
UniProt P48729: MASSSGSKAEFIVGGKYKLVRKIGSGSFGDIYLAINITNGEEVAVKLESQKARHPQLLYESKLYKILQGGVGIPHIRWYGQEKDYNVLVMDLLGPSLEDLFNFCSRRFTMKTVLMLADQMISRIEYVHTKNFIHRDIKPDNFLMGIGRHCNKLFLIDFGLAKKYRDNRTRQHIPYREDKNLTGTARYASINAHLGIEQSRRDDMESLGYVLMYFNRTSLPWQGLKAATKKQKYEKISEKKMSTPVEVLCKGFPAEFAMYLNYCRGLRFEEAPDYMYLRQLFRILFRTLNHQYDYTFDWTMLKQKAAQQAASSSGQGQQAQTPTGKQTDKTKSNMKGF
UniProt P48730: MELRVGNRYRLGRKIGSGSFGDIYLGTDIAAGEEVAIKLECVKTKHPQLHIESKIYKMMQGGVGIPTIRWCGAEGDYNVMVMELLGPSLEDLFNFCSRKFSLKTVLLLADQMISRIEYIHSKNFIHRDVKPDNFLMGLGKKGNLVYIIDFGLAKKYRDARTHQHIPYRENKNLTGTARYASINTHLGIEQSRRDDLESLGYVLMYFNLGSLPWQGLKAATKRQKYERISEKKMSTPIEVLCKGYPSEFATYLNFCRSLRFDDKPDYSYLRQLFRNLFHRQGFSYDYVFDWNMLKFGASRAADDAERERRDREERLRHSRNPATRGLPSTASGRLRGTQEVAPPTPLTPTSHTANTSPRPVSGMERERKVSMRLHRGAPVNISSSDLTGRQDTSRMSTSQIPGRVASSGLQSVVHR
UniProt Q92630: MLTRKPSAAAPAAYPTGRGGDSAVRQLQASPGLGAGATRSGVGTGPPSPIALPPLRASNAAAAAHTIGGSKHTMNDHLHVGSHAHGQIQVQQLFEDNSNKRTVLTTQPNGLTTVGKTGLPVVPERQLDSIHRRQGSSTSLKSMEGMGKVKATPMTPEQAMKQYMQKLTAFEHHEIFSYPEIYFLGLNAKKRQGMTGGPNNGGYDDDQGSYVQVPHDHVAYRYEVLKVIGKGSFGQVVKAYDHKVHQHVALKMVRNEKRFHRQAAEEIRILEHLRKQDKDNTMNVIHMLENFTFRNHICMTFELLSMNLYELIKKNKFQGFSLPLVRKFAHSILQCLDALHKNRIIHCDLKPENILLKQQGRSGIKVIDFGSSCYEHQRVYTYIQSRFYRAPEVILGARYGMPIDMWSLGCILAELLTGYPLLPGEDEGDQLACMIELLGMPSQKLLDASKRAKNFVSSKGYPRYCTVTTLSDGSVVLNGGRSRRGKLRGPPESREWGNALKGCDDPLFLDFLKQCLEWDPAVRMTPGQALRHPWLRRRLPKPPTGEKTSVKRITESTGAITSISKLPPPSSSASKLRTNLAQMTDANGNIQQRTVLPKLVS

Key:
Assay in all cases: kinase-Nluc reporter destabilization hit call (1 = scored as downregulated) (binary); higher = compound decreases kinase abundance
Conditions in all cases: K562; 2-18 h
BRAF_V600E = test system: BRAF_V600E
BTK = BTK (UniProt Q06187)
CAMK2A = CAMK2A (UniProt Q9UQM7)
CAMK2G = CAMK2G (UniProt Q13555)
CDK10 = CDK10 (UniProt Q15131)
CDK2 = CDK2 (UniProt P24941)
CDK3 = CDK3 (UniProt Q00526)
CDK4 = CDK4 (UniProt P11802)
CDK5 = CDK5 (UniProt Q00535)
CDK6 = CDK6 (UniProt Q00534)
CDK7 = CDK7 (UniProt P50613)
CDK9 = CDK9 (UniProt P50750)
CHEK2 = CHEK2 (UniProt O96017)
CSF1R = CSF1R (UniProt P07333)
CSK = CSK (UniProt P41240)
CSNK1A1 = CSNK1A1 (UniProt P48729)
CSNK1D = CSNK1D (UniProt P48730)
DDR1 = DDR1 (UniProt Q08345)
DYRK1B = DYRK1B (UniProt Q9Y463)
DYRK2 = DYRK2 (UniProt Q92630)

Measured: kinase-Nluc reporter destabilization hit call

c1ccc(-c2[nH]ncc2-c2ccnc3ccccc23)nc1 (10 µM)
inactive: BRAF_V600E 0 | BTK 0 | CAMK2A 0 | CAMK2G 0 | CDK10 = 0 | CDK2 = 0 | CDK3 = 0 | CDK4 = 0 | CDK5 = 0 | CDK6 = 0 | CDK7 = 0 | CDK9 = 0 | CHEK2 = 0 | CSF1R 0 | CSK 0 | CSNK1A1 = 0 | CSNK1D 0 | DDR1 = 0 | DYRK1B 0 | DYRK2 = 0

CCN1CCN(Cc2ccc(Nc3ncc(F)c(-c4cc(F)c5nc(C)n(C(C)C)c5c4)n3)nc2)CC1 [Abemaciclib] (2 µM)
inactive: BRAF_V600E 0 | BTK 0 | CAMK2A 0 | CAMK2G 0 | CDK10 = 0 | CDK3 = 0 | CDK4 = 0 | CDK5 = 0 | CDK6 = 0 | CDK7 = 0 | CDK9 = 0 | CHEK2 = 0 | CSF1R 0 | CSK 0 | CSNK1A1 = 0 | CSNK1D 0 | DDR1 = 0 | DYRK1B 0 | DYRK2 = 0

Cc1cc(=O)oc2c(C=O)c(O)ccc12 (10 µM)
inactive: BRAF_V600E 0 | BTK 0 | CAMK2A 0 | CAMK2G 0 | CDK10 = 0 | CDK2 = 0 | CDK3 = 0 | CDK4 = 0 | CDK5 = 0 | CDK6 = 0 | CDK7 = 0 | CDK9 = 0 | CHEK2 = 0 | CSF1R 0 | CSK 0 | CSNK1A1 = 0 | CSNK1D 0 | DDR1 = 0 | DYRK1B 0 | DYRK2 = 0

COc1cc2c(N3CCN(C(=O)Nc4ccc(OC(C)C)cc4)CC3)ncnc2cc1OCCCN1CCCCC1 [Tandutinib (hydrochloride)] (10 µM)
inactive: BRAF_V600E 0 | BTK 0 | CAMK2A 0 | CAMK2G 0 | CDK10 = 0 | CDK2 = 0 | CDK3 = 0 | CDK4 = 0 | CDK5 = 0 | CDK6 = 0 | CDK7 = 0 | CDK9 = 0 | CHEK2 = 0 | CSK 0 | CSNK1A1 = 0 | CSNK1D 0 | DDR1 = 0 | DYRK1B 0 | DYRK2 = 0

CC1=C(C(=O)O)N2C(=O)[C@@H](NC(=O)[C@H](N)C3=CCC=CC3)[C@H]2SC1 [Cephradine] (10 µM)
inactive: BRAF_V600E 0 | BTK 0 | CAMK2A 0 | CAMK2G 0 | CDK10 = 0 | CDK2 = 0 | CDK3 = 0 | CDK4 = 0 | CDK5 = 0 | CDK6 = 0 | CDK7 = 0 | CDK9 = 0 | CHEK2 = 0 | CSF1R 0 | CSK 0 | CSNK1A1 = 0 | CSNK1D 0 | DDR1 = 0 | DYRK1B 0 | DYRK2 = 0

c1cncc(CN2CCC(n3ncc4c(N5CCOCC5)nc(-c5ccc6[nH]ccc6c5)nc43)CC2)c1 (10 µM)
inactive: BRAF_V600E 0 | BTK 0 | CAMK2A 0 | CAMK2G 0 | CDK10 = 0 | CDK2 = 0 | CDK3 = 0 | CDK4 = 0 | CDK5 = 0 | CDK6 = 0 | CDK7 = 0 | CDK9 = 0 | CHEK2 = 0 | CSF1R 0 | CSK 0 | CSNK1A1 = 0 | CSNK1D 0 | DDR1 = 0 | DYRK1B 0 | DYRK2 = 0

Cc1ccc2nc(NCCN)c3ncc(C)n3c2c1 (2.5 µM)
inactive: BRAF_V600E 0 | BTK 0 | CAMK2A 0 | CAMK2G 0 | CDK10 = 0 | CDK3 = 0 | CDK4 = 0 | CDK5 = 0 | CDK6 = 0 | CDK7 = 0 | CDK9 = 0 | CHEK2 = 0 | CSF1R 0 | CSK 0 | CSNK1A1 = 0 | CSNK1D 0 | DDR1 = 0 | DYRK1B 0 | DYRK2 = 0

NC(=O)c1ccc2[nH]ccc2c1 (10 µM)
inactive: BRAF_V600E 0 | BTK 0 | CAMK2A 0 | CAMK2G 0 | CDK10 = 0 | CDK2 = 0 | CDK3 = 0 | CDK4 = 0 | CDK5 = 0 | CDK6 = 0 | CDK7 = 0 | CDK9 = 0 | CHEK2 = 0 | CSF1R 0 | CSK 0 | CSNK1A1 = 0 | CSNK1D 0 | DDR1 = 0 | DYRK1B 0 | DYRK2 = 0

Cc1[nH]c(/C=C2\C(=O)Nc3ccccc32)c(C)c1CCC(=O)O [Orantinib] (10 µM)
inactive: BRAF_V600E 0 | BTK 0 | CAMK2A 0 | CAMK2G 0 | CDK10 = 0 | CDK2 = 0 | CDK3 = 0 | CDK4 = 0 | CDK5 = 0 | CDK6 = 0 | CDK7 = 0 | CDK9 = 0 | CHEK2 = 0 | CSF1R 0 | CSK 0 | CSNK1A1 = 0 | DDR1 = 0 | DYRK1B 0 | DYRK2 = 0

Cc1cc2ncc(-c3ccc(O)c(O)c3)nc2cc1C [Tyrphostin AG1433] (10 µM)
inactive: BRAF_V600E 0 | BTK 0 | CAMK2A 0 | CAMK2G 0 | CDK10 = 0 | CDK2 = 0 | CDK3 = 0 | CDK4 = 0 | CDK5 = 0 | CDK6 = 0 | CDK7 = 0 | CDK9 = 0 | CHEK2 = 0 | CSF1R 0 | CSK 0 | CSNK1A1 = 0 | CSNK1D 0 | DDR1 = 0 | DYRK1B 0 | DYRK2 = 0

C[C@@H]1CCN(C(=O)CC#N)C[C@@H]1N(C)c1ncnc2[nH]ccc12 [Tofacitinib (citrate)] (10 µM)
inactive: BRAF_V600E 0 | CAMK2A 0 | CAMK2G 0 | CDK10 = 0 | CDK2 = 0 | CDK3 = 0 | CDK4 = 0 | CDK5 = 0 | CDK6 = 0 | CDK7 = 0 | CDK9 = 0 | CHEK2 = 0 | CSF1R 0 | CSK 0 | CSNK1A1 = 0 | DDR1 = 0 | DYRK1B 0 | DYRK2 = 0

Nc1nc(F)nc2c1ncn2[C@@H]1O[C@H](CO)[C@@H](O)[C@@H]1O [Fludarabine] (10 µM)
inactive: BRAF_V600E 0 | BTK 0 | CAMK2A 0 | CAMK2G 0 | CDK10 = 0 | CDK2 = 0 | CDK3 = 0 | CDK4 = 0 | CDK5 = 0 | CDK6 = 0 | CDK7 = 0 | CDK9 = 0 | CHEK2 = 0 | CSF1R 0 | CSK 0 | CSNK1A1 = 0 | CSNK1D 0 | DDR1 = 0 | DYRK1B 0 | DYRK2 = 0

Nc1cc(C(F)(F)F)c(-c2cc(N3CCOCC3)nc(N3CCOCC3)n2)cn1 [Buparlisib (Hydrochloride)] (2.5 µM)
inactive: BRAF_V600E 0 | BTK 0 | CAMK2A 0 | CAMK2G 0 | CDK10 = 0 | CDK2 = 0 | CDK3 = 0 | CDK4 = 0 | CDK5 = 0 | CDK6 = 0 | CDK7 = 0 | CDK9 = 0 | CHEK2 = 0 | CSF1R 0 | CSK 0 | CSNK1A1 = 0 | CSNK1D 0 | DDR1 = 0 | DYRK1B 0 | DYRK2 = 0

Ordered by length of the SMILES (low to high): part of the list above.
Cc1cc(=O)oc2c(C=O)c(O)ccc12 (10 µM)
inactive: BRAF_V600E 0 | BTK 0 | CAMK2A 0 | CAMK2G 0 | CDK10 = 0 | CDK2 = 0 | CDK3 = 0 | CDK4 = 0 | CDK5 = 0 | CDK6 = 0 | CDK7 = 0 | CDK9 = 0 | CHEK2 = 0 | CSF1R 0 | CSK 0 | CSNK1A1 = 0 | CSNK1D 0 | DDR1 = 0 | DYRK1B 0 | DYRK2 = 0

C[C@@H]1CCN(C(=O)CC#N)C[C@@H]1N(C)c1ncnc2[nH]ccc12 [Tofacitinib (citrate)] (10 µM)
inactive: BRAF_V600E 0 | CAMK2A 0 | CAMK2G 0 | CDK10 = 0 | CDK2 = 0 | CDK3 = 0 | CDK4 = 0 | CDK5 = 0 | CDK6 = 0 | CDK7 = 0 | CDK9 = 0 | CHEK2 = 0 | CSF1R 0 | CSK 0 | CSNK1A1 = 0 | DDR1 = 0 | DYRK1B 0 | DYRK2 = 0

COc1cc2c(N3CCN(C(=O)Nc4ccc(OC(C)C)cc4)CC3)ncnc2cc1OCCCN1CCCCC1 [Tandutinib (hydrochloride)] (10 µM)
inactive: BRAF_V600E 0 | BTK 0 | CAMK2A 0 | CAMK2G 0 | CDK10 = 0 | CDK2 = 0 | CDK3 = 0 | CDK4 = 0 | CDK5 = 0 | CDK6 = 0 | CDK7 = 0 | CDK9 = 0 | CHEK2 = 0 | CSK 0 | CSNK1A1 = 0 | CSNK1D 0 | DDR1 = 0 | DYRK1B 0 | DYRK2 = 0

Next part

FC(F)(c1ccc2ncccc2c1)c1nnc2ccc(-c3ccncc3)nn12 (10 µM)
inactive: BRAF_V600E 0 | BTK 0 | CAMK2A 0 | CAMK2G 0 | CDK10 = 0 | CDK2 = 0 | CDK3 = 0 | CDK4 = 0 | CDK5 = 0 | CDK6 = 0 | CDK7 = 0 | CDK9 = 0 | CHEK2 = 0 | CSF1R 0 | CSK 0 | CSNK1A1 = 0 | CSNK1D 0 | DDR1 = 0 | DYRK1B 0 | DYRK2 = 0

CCN1CCN(Cc2ccc(-c3cc4c(N[C@H](C)c5ccccc5)ncnc4[nH]3)cc2)CC1 (2.5 µM)
inactive: BRAF_V600E 0 | BTK 0 | CAMK2A 0 | CAMK2G 0 | CDK10 = 0 | CDK2 = 0 | CDK3 = 0 | CDK4 = 0 | CDK5 = 0 | CDK6 = 0 | CDK7 = 0 | CDK9 = 0 | CHEK2 = 0 | CSF1R 0 | CSK 0 | CSNK1A1 = 0 | CSNK1D 0 | DDR1 = 0 | DYRK1B 0 | DYRK2 = 0

Cn1cc(-c2ccc3c(c2)CCN3C(=O)Cc2cccc(C(F)(F)F)c2)c2c(N)ncnc21 (2.5 µM)
inactive: BRAF_V600E 0 | BTK 0 | CAMK2A 0 | CAMK2G 0 | CDK10 = 0 | CDK2 = 0 | CDK3 = 0 | CDK4 = 0 | CDK5 = 0 | CDK6 = 0 | CDK7 = 0 | CDK9 = 0 | CHEK2 = 0 | CSF1R 0 | CSK 0 | CSNK1A1 = 0 | CSNK1D 0 | DDR1 = 0 | DYRK1B 0 | DYRK2 = 0

Cn1nccc1Nc1nccc(-c2ccn([C@H](CO)c3ccc(Cl)c(F)c3)c(=O)c2)n1 [Ravoxertinib] (10 µM)
inactive: BRAF_V600E 0 | BTK 0 | CAMK2A 0 | CAMK2G 0 | CDK10 = 0 | CDK3 = 0 | CDK4 = 0 | CDK5 = 0 | CDK6 = 0 | CDK7 = 0 | CDK9 = 0 | CHEK2 = 0 | CSF1R 0 | CSK 0 | CSNK1A1 = 0 | CSNK1D 0 | DDR1 = 0 | DYRK1B 0 | DYRK2 = 0
